According to paper PMC7819943, “Rice protein-binding microarrays: a tool to detect cis-acting elements near promoter regions in rice”:
The list shows a part of the results.

Amino acid sequences for entries named in this document (tags omitted).
UniProt Q0JBA9, entry or part of it: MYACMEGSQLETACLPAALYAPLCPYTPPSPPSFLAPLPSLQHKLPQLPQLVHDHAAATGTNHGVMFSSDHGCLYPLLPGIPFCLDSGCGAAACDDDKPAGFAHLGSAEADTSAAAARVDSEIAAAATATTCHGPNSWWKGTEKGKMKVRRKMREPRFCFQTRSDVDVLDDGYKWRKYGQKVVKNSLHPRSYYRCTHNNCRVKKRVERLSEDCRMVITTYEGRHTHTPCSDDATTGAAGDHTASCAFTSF

Each sequence was assayed against OsWRKY34 (Oryza sativa, UniProt Q0JBA9 1-250) (assay: protein-binding microarray (RPBM); PBS, 2% BSA, 51.3 ng/ul salmon testes DNA, 50 uM zinc acetate, 200 nM TF, 25 C, 1 h; high values mean tight binding). Conditions: protein: recombinant; tags: N-terminal polyhistidine and DsRed monomer fusion (pET32a); label: CyDye5-dUTP incorporated in the synthesized complementary strand; 3' TTTTT single-stranded linker to array surface; dsDNA, one strand shown.
Summary of the method: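 The binding signal is fluorescence intensity per array feature (arbitrary units). Readings came from an Axon 4000B scanner after a washed, 2% BSA-blocked, double-stranded custom Agilent array had been incubated for 1 h at 25 °C with 200 nM protein and 50 µM zinc acetate. The protein was a Ni–NTA-purified transcription factor fused N-terminally to polyhistidine and DsRed, expressed in E. coli BL21-CodonPlus.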

Row | Sequence | binding signal
1 | CGTGCGGGGATGCTTGGATGTGGGAAGGTGGGATAGGAGACGGAGTCACCTAGTGCAG | 9820 fluorescence intensity (a.u.)
2 | CGTGCATCTTCCCGGCCTCTTTACTCTGGTGTTGTGAGACCGGAGTCACCTAGTGCAG | 9270 fluorescence intensity (a.u.)
3 | TGTGGGCCCAAAATTCGAATCACATATTTAACAGGGGAGGCGGAGTCACCTAGTGCAG | 8670 fluorescence intensity (a.u.)
4 | ATCTTTGGTACAATGTACTAGTCCTACCACTCCTACTTAACGGAGTCACCTAGTGCAG | 8180 fluorescence intensity (a.u.)
5 | CAAACTTCTAACTTTTCCGTCGCATTGTTCTAATTTCAACCGGAGTCACCTAGTGCAG | 9910 fluorescence intensity (a.u.)
6 | CACATTGCGTCTTGTAGTCTGTATTGTAGCTGACTATATACGGAGTCACCTAGTGCAG | 8820 fluorescence intensity (a.u.)
7 | TTTGCACGGTTTTTCATGGTTTTTCACGGTTACCGCGGTACGGAGTCACCTAGTGCAG | 10100 fluorescence intensity (a.u.)
8 | TGCGGGATTACGGAATGGGGTTTGATGGGAGTTGCGTCATCGGAGTCACCTAGTGCAG | 9240 fluorescence intensity (a.u.)
9 | AGTATTCTCCTTTTAAATTGGCCCCGTTCCTTCCATTCTCCGGAGTCACCTAGTGCAG | 11900 fluorescence intensity (a.u.)
10 | CTTTGCTCGAAACGATCGGTCAATCGGTATGTACTTCTCACGGAGTCACCTAGTGCAG | 10800 fluorescence intensity (a.u.)
11 | TGTTGTTCGAATTTGACTTGTACACGCACATACCGTCTTTCGGAGTCACCTAGTGCAG | 8830 fluorescence intensity (a.u.)
12 | ATCACCGTCCCCGCTGCCGCCACCCGCCACTGCCGCAGCGCGGAGTCACCTAGTGCAG | 10800 fluorescence intensity (a.u.)
13 | TCTGTGTCTCTCTTGCCATATTCGTGTTGTTTTCCTCTATCGGAGTCACCTAGTGCAG | 11400 fluorescence intensity (a.u.)
14 | TCACCTGTCATACACACATGTATCTTGAGTTCATGTTGCACGGAGTCACCTAGTGCAG | 8700 fluorescence intensity (a.u.)
15 | GGGACGTGCTATATCTGGTTCTGCGGTTCAATGACGAATTCGGAGTCACCTAGTGCAG | 10200 fluorescence intensity (a.u.)
16 | GCCCCATCCACCGCACCACACGTCTCTTTTTTTCGCGACTCGGAGTCACCTAGTGCAG | 14600 fluorescence intensity (a.u.)
17 | GTTGGTATGGCTGCTTGTGAGACGTCTTGGACTAATCTATCGGAGTCACCTAGTGCAG | 10500 fluorescence intensity (a.u.)
18 | TTCTTTGTCATGGTTTTCTCATTTTCCCCTATGAGTTTTTCGGAGTCACCTAGTGCAG | 8690 fluorescence intensity (a.u.)
19 | GTTGTCGCACACATAATTATCATCCATCGATCCATCCATACGGAGTCACCTAGTGCAG | 10900 fluorescence intensity (a.u.)
20 | GTGTGTGCGTCTGTCTCTCTCTCACAGGAAATCGTCGAAACGGAGTCACCTAGTGCAG | 9790 fluorescence intensity (a.u.)
21 | CCATCTTCTTCTATCATAATCCGTTTCGTCGTCCTCCTGACGGAGTCACCTAGTGCAG | 9490 fluorescence intensity (a.u.)
22 | CTTAGGATTGCCGGTTGCTACACACTTTTATTGGTACATTCGGAGTCACCTAGTGCAG | 8810 fluorescence intensity (a.u.)
23 | TGTCCGGTGCGTTTTGATTGGGTCGTCTGCCCTCGGTTGACGGAGTCACCTAGTGCAG | 13500 fluorescence intensity (a.u.)

A different layout for part of the listing above.
CAAACTTCTAACTTTTCCGTCGCATTGTTCTAATTTCAACCGGAGTCACCTAGTGCAG
  binding signal: 9910 fluorescence intensity (a.u.)
CACATTGCGTCTTGTAGTCTGTATTGTAGCTGACTATATACGGAGTCACCTAGTGCAG
  binding signal: 8820 fluorescence intensity (a.u.)
